Results deposited as PubChem BioAssay AID504774 (Drosophila RNAi Screening Center, 2011)
The screen tested about 23,000 reagents; shown is an unselected part of those with a known target gene and a result. 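Values are quantile-normalised luminescence on an arbitrary scale; higher means more cells surviving MMS.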 Names joined by + are all predicted targets of the reagent.

Aim: 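Knock-downs that shift viability of MMS-exposed cells relative to untreated ones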 (primary screen)
Cells: Drosophila Kc167 cells
Reagent: long dsRNA against Drosophila genes, about 0.25 µg dsRNA per well
Duration: about 6 days: 3 days knock-down, then 3 days with or without MMS
Conditions: methyl methanesulphonate 0.004% (w/v) for 3 days after knock-down
Measurement: 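ATP-dependent luminescence as a measure of live cells in MMS-exposed wells, quantile normalised within each plate, with replicate values also given as a mean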
Direction: mean viability with MMS and viability with MMS: higher = more surviving cells after MMS

| Gene | DRSC id | mean viability with MMS | viability with MMS, replicate 1 | viability with MMS, replicate 2 |
| --- | --- | --- | --- | --- |
| Rab2 | DRSC05017 | 3.57e6 | 4.00e6 | 3.98e6 |
| Exo84 (Exocyst 84) | DRSC15965 | 3.44e6 | 3.87e6 | 3.90e6 |
| CG32813 | DRSC17948 | 3.72e6 | 4.02e6 | 4.36e6 |
| VhaM9.7-a (Vacuolar H[+] ATPase M9.7 subunit a) | DRSC08289 | 3.50e6 | 3.90e6 | 4.05e6 |
| aPKC (atypical protein kinase C) | DRSC05515 | 3.69e6 | 4.08e6 | 4.17e6 |
| aPKC (atypical protein kinase C) | DRSC07639 | 3.51e6 | 4.05e6 | 3.87e6 |
| CG13723 | DRSC10052 | 3.38e6 | 3.79e6 | 3.80e6 |
| Usp14 (Ubiquitin specific protease 14) | DRSC02853 | 3.70e6 | 4.33e6 | 4.11e6 |
| Stacl + CG8179 (retired record) | DRSC07091 | 3.54e6 | 4.08e6 | 3.93e6 |
| Stacl + CG8179 (retired record) | DRSC23019 | 3.75e6 | 4.25e6 | 4.24e6 |
| Pfdn5 (Prefoldin 5) | DRSC16183 | 3.59e6 | 4.04e6 | 4.09e6 |
| CG6432 | DRSC16039 | 3.56e6 | 4.01e6 | 4.07e6 |
| CG31100 | DRSC14453 | 3.54e6 | 3.98e6 | 4.05e6 |
| CG31100 | DRSC14455 | 3.72e6 | 4.07e6 | 4.31e6 |
| MagR (Magnetic receptor) | DRSC20092 | 3.42e6 | 3.83e6 | 3.89e6 |
| Pdzd8 (PDZ domain containing 8) | DRSC19355 | 3.31e6 | 3.77e6 | 3.78e6 |
| ine (inebriated) | DRSC00822 | 3.40e6 | 3.84e6 | 3.74e6 |
| Sec61gamma (Sec61 gamma subunit) | DRSC19570 | 3.44e6 | 3.87e6 | 3.94e6 |
| CG2120 | DRSC18207 | 3.64e6 | 4.29e6 | 3.97e6 |
| emb (embargoed) | DRSC03528 | 3.28e6 | 3.89e6 | 3.40e6 |
| PPO2 (Prophenoloxidase 2) | DRSC07102 | 3.51e6 | 4.03e6 | 3.91e6 |
| CG9426 | DRSC03219 | 3.35e6 | 3.78e6 | 3.78e6 |
| Pgant9 (Polypeptide N-Acetylgalactosaminyltransferase 9) | DRSC05621 | 3.48e6 | 3.86e6 | 4.05e6 |
| Pgant9 (Polypeptide N-Acetylgalactosaminyltransferase 9) | DRSC06584 | 3.54e6 | 3.99e6 | 4.03e6 |
| Pgant9 (Polypeptide N-Acetylgalactosaminyltransferase 9) | DRSC07185 | 3.60e6 | 4.22e6 | 3.93e6 |
| Pgant9 (Polypeptide N-Acetylgalactosaminyltransferase 9) | DRSC07186 | 3.43e6 | 3.90e6 | 3.85e6 |
| Pgant9 (Polypeptide N-Acetylgalactosaminyltransferase 9) | DRSC07187 | 3.65e6 | 4.23e6 | 4.02e6 |
| Pgant9 (Polypeptide N-Acetylgalactosaminyltransferase 9) | DRSC07189 | 3.56e6 | 3.98e6 | 4.08e6 |
| Pgant9 (Polypeptide N-Acetylgalactosaminyltransferase 9) | DRSC21807 | 3.58e6 | 4.07e6 | 4.06e6 |
| Pgant9 (Polypeptide N-Acetylgalactosaminyltransferase 9) | DRSC22076 | 3.69e6 | 4.09e6 | 4.19e6 |
| Gem2 (Gemin 2) | DRSC09721 | 3.63e6 | 4.23e6 | 3.99e6 |
| park + Targ3 | DRSC11617 | 3.51e6 | 3.95e6 | 4.00e6 |
| for (foraging) | DRSC00195 | 3.08e6 | 3.59e6 | 3.53e6 |
| for (foraging) | DRSC00818 | 3.44e6 | 3.91e6 | 3.80e6 |
| Rrp1 (Recombination repair protein 1) | DRSC00784 | 3.66e6 | 4.25e6 | 3.92e6 |
| Ldsdh1 (Lipid droplet subset dehydrogenase 1) | DRSC18219 | 3.62e6 | 4.01e6 | 4.21e6 |

The list goes on, starting with the last 10 of the part before.
| Gene | DRSC id | mean viability with MMS | viability with MMS, replicate 1 | viability with MMS, replicate 2 |
| --- | --- | --- | --- | --- |
| Pgant9 (Polypeptide N-Acetylgalactosaminyltransferase 9) | DRSC07187 | 3.65e6 | 4.23e6 | 4.02e6 |
| Pgant9 (Polypeptide N-Acetylgalactosaminyltransferase 9) | DRSC07189 | 3.56e6 | 3.98e6 | 4.08e6 |
| Pgant9 (Polypeptide N-Acetylgalactosaminyltransferase 9) | DRSC21807 | 3.58e6 | 4.07e6 | 4.06e6 |
| Pgant9 (Polypeptide N-Acetylgalactosaminyltransferase 9) | DRSC22076 | 3.69e6 | 4.09e6 | 4.19e6 |
| Gem2 (Gemin 2) | DRSC09721 | 3.63e6 | 4.23e6 | 3.99e6 |
| park + Targ3 | DRSC11617 | 3.51e6 | 3.95e6 | 4.00e6 |
| for (foraging) | DRSC00195 | 3.08e6 | 3.59e6 | 3.53e6 |
| for (foraging) | DRSC00818 | 3.44e6 | 3.91e6 | 3.80e6 |
| Rrp1 (Recombination repair protein 1) | DRSC00784 | 3.66e6 | 4.25e6 | 3.92e6 |
| Ldsdh1 (Lipid droplet subset dehydrogenase 1) | DRSC18219 | 3.62e6 | 4.01e6 | 4.21e6 |
| CG7377 | DRSC10830 | 3.47e6 | 3.84e6 | 4.02e6 |
| SdhCL (Succinate dehydrogenase, subunit C-like) | DRSC16078 | 3.46e6 | 3.90e6 | 3.98e6 |
| Surf6 (Surfeit 6) | DRSC15588 | 3.51e6 | 3.99e6 | 3.99e6 |
| CG10700 | DRSC02096 | 3.62e6 | 4.12e6 | 4.10e6 |
| slx1 (nuclease slx1) | DRSC12290 | 3.48e6 | 3.95e6 | 3.91e6 |
| CG13516 | DRSC04159 | 3.67e6 | 4.16e6 | 4.16e6 |
| TwdlQ (TweedleQ) | DRSC14745 | 3.23e6 | 3.60e6 | 3.65e6 |
| TwdlQ (TweedleQ) | DRSC23107 | 3.49e6 | 4.10e6 | 3.87e6 |
| DCTN4-p62 (Dynactin 4, p62 subunit) | DRSC06101 | 3.41e6 | 3.93e6 | 3.75e6 |
| en (engrailed) | DRSC07609 | 3.60e6 | 4.06e6 | 4.14e6 |
| CG10469 | DRSC09729 | 3.58e6 | 4.02e6 | 4.13e6 |
| Osi19 (Osiris 19) | DRSC12569 | 3.60e6 | 3.96e6 | 4.21e6 |
| CG5568 | DRSC10518 | 3.68e6 | 4.08e6 | 4.26e6 |
| CG5568 | DRSC22816 | 3.50e6 | 4.05e6 | 3.92e6 |
| kay (kayak) | DRSC13962 | 3.42e6 | 3.90e6 | 3.84e6 |
| kay (kayak) | DRSC15048 | 3.14e6 | 3.58e6 | 3.57e6 |
| kay (kayak) | DRSC16977 | 3.35e6 | 3.81e6 | 3.82e6 |
| CG2121 | DRSC06819 | 3.77e6 | 4.37e6 | 4.16e6 |
| CG2121 | DRSC06820 | 3.58e6 | 4.02e6 | 4.08e6 |
| CG34450 | DRSC17822 | 3.68e6 | 4.19e6 | 3.96e6 |
| CG3565 | DRSC04389 | 3.57e6 | 4.02e6 | 3.97e6 |
| sll (slalom) | DRSC16271 | 3.58e6 | 4.03e6 | 4.09e6 |
| CG17841 | DRSC17737 | 3.50e6 | 3.93e6 | 3.70e6 |
| VhaM9.7-b (Vacuolar H[+] ATPase M9.7 subunit b) | DRSC11841 | 3.49e6 | 3.88e6 | 3.99e6 |
| CG13713 | DRSC08322 | 3.59e6 | 4.10e6 | 4.07e6 |
| CG31093 | DRSC15689 | 3.54e6 | 3.94e6 | 4.08e6 |
| Aps (Aps pyrophosphatase) | DRSC10629 | 3.66e6 | 4.03e6 | 4.23e6 |
| Pex23 (Peroxin 23) | DRSC10323 | 3.58e6 | 4.06e6 | 4.05e6 |
| Pex23 (Peroxin 23) | DRSC10645 | 3.63e6 | 4.19e6 | 4.03e6 |
| CG7778 | DRSC03067 | 3.77e6 | 4.34e6 | 4.25e6 |
| Snap24 (Synaptosomal-associated protein 24kDa) | DRSC16864 | 3.46e6 | 3.94e6 | 3.94e6 |
| CG8248 | DRSC07124 | 3.46e6 | 3.91e6 | 3.90e6 |
| CG10576 | DRSC09745 | 3.58e6 | 3.98e6 | 4.16e6 |
| dock (dreadlocks) | DRSC00812 | 3.47e6 | 3.83e6 | 3.97e6 |
| cpo (couch potato) | DRSC13265 | 3.67e6 | 4.13e6 | 4.14e6 |
| CG13912 | DRSC08381 | 3.62e6 | 4.06e6 | 4.11e6 |
| Cyp49a1 (Cytochrome P450 49a1) | DRSC06737 | 3.62e6 | 4.00e6 | 4.16e6 |
| Cyp49a1 (Cytochrome P450 49a1) | DRSC07367 | 3.64e6 | 4.04e6 | 4.14e6 |
| RpL10 (Ribosomal protein L10) | DRSC11947 | 3.19e6 | 3.62e6 | 3.63e6 |
| CG15478 | DRSC18057 | 3.35e6 | 3.81e6 | 3.79e6 |
| Aladin | DRSC18121 | 3.76e6 | 4.47e6 | 3.94e6 |
| LManV (Lysosomal alpha-mannosidase V) | DRSC03223 | 3.47e6 | 3.97e6 | 3.88e6 |
| Hayan | DRSC19989 | 3.70e6 | 4.04e6 | 4.10e6 |
| Hayan | DRSC22231 | 3.27e6 | 3.79e6 | 3.85e6 |
| AOX3 (Aldehyde oxidase 3) | DRSC15955 | 3.44e6 | 3.96e6 | 3.80e6 |
| Dll (Distal-less) | DRSC04610 | 3.52e6 | 4.19e6 | 3.78e6 |
| CG11658 | DRSC09852 | 3.55e6 | 4.13e6 | 3.93e6 |
| GatB (Glutamyl-tRNA amidotransferase, subunit B) | DRSC15807 | 3.69e6 | 4.22e6 | 4.14e6 |
| XNP | DRSC15594 | 3.38e6 | 3.89e6 | 3.79e6 |
| Fadd (Fas-associated death domain) | DRSC14122 | 3.39e6 | 3.85e6 | 3.88e6 |
| Gr39a (Gustatory receptor 39a) | DRSC01841 | 3.40e6 | 3.95e6 | 3.79e6 |
| Gr39a (Gustatory receptor 39a) | DRSC01842 | 3.56e6 | 4.05e6 | 4.02e6 |
